Part of at least one peptide drawing is inferred or uncertain, most often the ends. Residues, ends and D or L forms follow the SMILES beside them.
How the values were obtained:
E. coli BL-21 = assay type: cell-based, Escherichia coli; conditions: 16 h post incubation, OD600, FIG. 4A
BL-21 E. coli = assay: Propidium iodide membrane permeability (fluorescence microscopy, flow cytometry); assay type: cell-based, Escherichia coli

Structure (SMILES): CC[C@H](C)[C@H](NC(=O)[C@H](CC(C)C)NC(=O)[C@H](CO)NC(=O)[C@@H](N)CC(C)C)C(=O)N[C@@H](C)C(=O)N[C@@H](C)C(=O)N[C@@H](C)C(=O)NCC(=O)N[C@@H](CCCCN)C(=O)N[C@@H](CCC(=O)O)C(=O)N[C@H](C(=O)N[C@H](C(=O)N[C@@H](CCCNC(=N)N)C(=O)N[C@@H](CCC(N)=O)C(=O)N[C@@H](Cc1ccc(O)cc1)C(=O)N[C@@H](CC(C)C)C(=O)N[C@@H](CCCCN)C(=O)N[C@@H](CC(N)=O)C(=O)N[C@@H](CCC(=O)O)C(=O)N[C@H](C(=O)N[C@@H](CCCCN)C(=O)N[C@@H](CCCCN)C(=O)N[C@@H](CCCCN)C(=O)NCC(=O)N[C@@H](CCCNC(=N)N)C(=O)N[C@@H](CCCCN)C(=O)N[C@@H](C)C(=O)N[C@H](C(=O)N[C@H](C(=O)N[C@@H](C)C(=O)N[C@@H](Cc1c[nH]c2ccccc12)C(=O)O)[C@@H](C)CC)C(C)C)[C@@H](C)CC)[C@@H](C)CC)[C@@H](C)O [syn-safencin] (H-LSLIAAAGKETIRQYLKNEIKKKGRKAVIAW-OH)
- bacteriostatic activity against E. coli (E. coli BL-21): dose-dependent bacteriostatic activity
- PI positive cells, flow cytometry (BL-21 E. coli; E. coli treated with 32, 16, 8, 4 or 2 μM peptide, FIG. 8): increase in PI positive cells in all peptide treated groups
- PI staining (membrane permeability), fluorescence microscopy (BL-21 E. coli; E. coli treated with 32, 16 or 8 μM peptide, FIGS. 7C-7E): positive staining for PI
